Some of the results follow.
Legend:
Assay in all cases: glycan array binding signal (z-score within array); higher = stronger binding
Details in all cases: glycan notation: IUPAC condensed, linker removed; mutation: R276L
[1] = molecular target: GalNAc3S(b1-4)GlcNAc3S
In short: (§1)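 The binding signal is a Z-score computed within each array and averaged over linkers. Arrays of the same protein sequence at different concentrations or buffers were also averaged together. Data originate from 3228 arrays in the Consortium for Functional Glycomics database, kept only where the protein sequence was available.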

[2] = molecular target: GalNAc3S(b1-4)[Fuc(a1-3)]GlcNAc
In short: as §1

[3] = molecular target: GalNAc4S6S(b1-4)GlcNAc
In short: as §1

[4] = molecular target: GalNAc6S(b1-4)GlcNAc
In short: as §1

[5] = molecular target: Glc(a1-4)Glc
In short: as §1

[6] = molecular target: Glc(a1-4)Glc(a1-4)Glc(a1-4)Glc
In short: as §1

[7] = molecular target: Glc(a1-6)Glc(a1-6)Glc
In short: as §1

[8] = molecular target: Glc(a1-6)Glc(a1-6)Glc(a1-6)Glc
In short: as §1

[9] = molecular target: Glc(b1-4)Glc
In short: as §1

[10] = molecular target: Glc(b1-6)Glc
In short: as §1

[11] = molecular target: GlcA(b1-3)Gal
In short: as §1

[12] = molecular target: GlcA(b1-3)GlcNAc
In short: as §1

[13] = molecular target: GlcA(b1-6)Gal
In short: as §1

[14] = molecular target: GlcA3S(b1-3)Gal(b1-4)GlcNAc(b1-2)Man
In short: as §1

[15] = molecular target: GlcA3S(b1-3)Gal(b1-4)GlcNAc(b1-3)Gal(b1-4)Glc
In short: as §1

[16] = molecular target: GlcNAc(a1-3)Gal(b1-4)GlcNAc
In short: as §1

[17] = molecular target: GlcNAc(a1-4)Gal(b1-3)GlcNAc
In short: as §1

[18] = molecular target: GlcNAc(a1-4)Gal(b1-4)GalNAc
In short: as §1

[19] = molecular target: GlcNAc(a1-4)Gal(b1-4)GlcNAc
In short: as §1

[20] = molecular target: GlcNAc(a1-4)Gal(b1-4)GlcNAc(b1-3)Gal(b1-4)Glc
In short: as §1

[21] = molecular target: GlcNAc(a1-4)Gal(b1-4)GlcNAc(b1-3)Gal(b1-4)GlcNAc
In short: as §1

[22] = molecular target: GlcNAc(a1-4)Gal(b1-4)GlcNAc(b1-3)Gal(b1-4)GlcNAc(b1-3)Gal(b1-4)GlcNAc
In short: as §1

[23] = molecular target: GlcNAc(a1-4)Gal(b1-4)GlcNAc(b1-3)Gal(b1-4)[Fuc(a1-3)]GlcNAc(b1-3)Gal(b1-4)[Fuc(a1-3)]GlcNAc
In short: as §1

[24] = molecular target: GlcNAc(a1-6)Gal(b1-4)GlcNAc
In short: as §1

[25] = molecular target: GlcNAc(b1-2)Gal(b1-3)GalNAc
In short: as §1

[26] = molecular target: GlcNAc(b1-2)Man(a1-3)[GlcNAc(b1-2)Man(a1-6)]Man(b1-4)GlcNAc(b1-4)GlcNAc
In short: as §1

[27] = molecular target: GlcNAc(b1-2)Man(a1-3)[GlcNAc(b1-2)Man(a1-6)]Man(b1-4)GlcNAc(b1-4)[Fuc(a1-6)]GlcNAc
In short: as §1

[28] = molecular target: GlcNAc(b1-2)Man(a1-3)[GlcNAc(b1-4)][GlcNAc(b1-2)Man(a1-6)]Man(b1-4)GlcNAc(b1-4)GlcNAc
In short: as §1

[29] = molecular target: GlcNAc(b1-2)Man(a1-3)[GlcNAc(b1-4)][GlcNAc(b1-2)Man(a1-6)]Man(b1-4)GlcNAc(b1-4)[Fuc(a1-6)]GlcNAc
In short: as §1

[30] = molecular target: GlcNAc(b1-2)[GlcNAc(b1-4)]Man(a1-3)[GlcNAc(b1-2)Man(a1-6)]Man(b1-4)GlcNAc(b1-4)GlcNAc
In short: as §1

[31] = molecular target: GlcNAc(b1-2)[GlcNAc(b1-4)]Man(a1-3)[GlcNAc(b1-4)][GlcNAc(b1-2)Man(a1-6)]Man(b1-4)GlcNAc(b1-4)GlcNAc
In short: as §1

[32] = molecular target: GlcNAc(b1-2)[GlcNAc(b1-4)]Man(a1-3)[GlcNAc(b1-4)][GlcNAc(b1-2)[GlcNAc(b1-6)]Man(a1-6)]Man(b1-4)GlcNAc(b1-4)GlcNAc
In short: as §1

[33] = molecular target: GlcNAc(b1-2)[GlcNAc(b1-4)]Man(a1-3)[GlcNAc(b1-4)][GlcNAc(b1-2)[GlcNAc(b1-6)]Man(a1-6)]Man(b1-4)GlcNAc(b1-4)[Fuc(a1-6)]GlcNAc
In short: as §1

[34] = molecular target: GlcNAc(b1-2)[GlcNAc(b1-6)]Man(a1-6)[GlcNAc(b1-2)Man(a1-3)]Man(b1-4)GlcNAc(b1-4)GlcNAc
In short: as §1

[35] = molecular target: GlcNAc(b1-2)[GlcNAc(b1-6)]Man(a1-6)[GlcNAc(b1-2)Man(a1-3)]Man(b1-4)GlcNAc(b1-4)[Fuc(a1-6)]GlcNAc
In short: as §1

[36] = molecular target: GlcNAc(b1-2)[GlcNAc(b1-6)]Man(a1-6)[GlcNAc(b1-4)][GlcNAc(b1-2)Man(a1-3)]Man(b1-4)GlcNAc(b1-4)GlcNAc
In short: as §1

[37] = molecular target: GlcNAc(b1-3)Fuc
In short: as §1

[38] = molecular target: GlcNAc(b1-3)Gal
In short: as §1

B1: SUN4P (Saccharomyces cerevisiae), P53616 (protein)
chain: MGSSHHHHHHSSGLVPRGSHNGSIYGDLADFSGPYEKFEDGTIPCGQFPSGQGVIPISWLDEGGWSGVENTDTSTGGSCKEGSYCSYACQPGMSKTQWPSDQPSDGRSIGGLLCKDGYLYRSNTDTDYLCEWGVDAAYVVSELSNDVAICLTDYPGTENMVIPTYVQAGDSLPLTVVDQDTYYTWQGLKTSAQYYVNNAGISVEDACVWGSSSSGVGNWAPLNFGAGSSDGVAYLSLIPNPNNGNALNFNVKIVAADDSSTVNGECIYENGSFSGGSDGCTVSVTAGKAKFVLYN
For B1, the “glycan array binding signal (z-score)” value [1] was 0.933, the “glycan array binding signal (z-score)” value [2] was -0.241 and the “glycan array binding signal (z-score)” value [3] was 0.715. For the same binder, the “glycan array binding signal (z-score)” value [4] was 0.217, the “glycan array binding signal (z-score)” value [5] was -0.169 and the “glycan array binding signal (z-score)” value [6] was -0.406. For the same binder, the “glycan array binding signal (z-score)” value [7] was -1.11, the “glycan array binding signal (z-score)” value [8] was 0.06 and the “glycan array binding signal (z-score)” value [9] was -0.537. The “glycan array binding signal (z-score)” value [10] was -0.045, the “glycan array binding signal (z-score)” value [11] was 0.533 and the “glycan array binding signal (z-score)” value [12] was -1.12. For the same binder, the “glycan array binding signal (z-score)” value [13] was -1.14, the “glycan array binding signal (z-score)” value [14] was -0.464 and the “glycan array binding signal (z-score)” value [15] was -0.059. The “glycan array binding signal (z-score)” value [16] was -0.683, the “glycan array binding signal (z-score)” value [17] was 1.83 and the “glycan array binding signal (z-score)” value [18] was -0.143. The “glycan array binding signal (z-score)” value [19] was -0.209, the “glycan array binding signal (z-score)” value [20] was -1.22 and the “glycan array binding signal (z-score)” value [21] was -0.664. For the same binder, the “glycan array binding signal (z-score)” value [22] was 0.259, the “glycan array binding signal (z-score)” value [23] was 1.22 and the “glycan array binding signal (z-score)” value [24] was 0.826. The “glycan array binding signal (z-score)” value [25] was -0.466, the “glycan array binding signal (z-score)” value [26] was -0.48 and the “glycan array binding signal (z-score)” value [27] was 1.21. For the same binder, the “glycan array binding signal (z-score)” value [28] was 0.523, the “glycan array binding signal (z-score)” value [29] was 0.219 and the “glycan array binding signal (z-score)” value [30] was -1.13. The “glycan array binding signal (z-score)” value [31] was -0.742, the “glycan array binding signal (z-score)” value [32] was 0.09 and the “glycan array binding signal (z-score)” value [33] was -1.07. The “glycan array binding signal (z-score)” value [34] was -0.462, the “glycan array binding signal (z-score)” value [35] was -0.52 and the “glycan array binding signal (z-score)” value [36] was 0.007. The “glycan array binding signal (z-score)” value [37] was -0.739 and the “glycan array binding signal (z-score)” value [38] was -0.02.
